Reference: patent US9040537B2, “Pyridazine compounds for controlling invertebrate pests” (BASF SE, priority 2010, dated 2015)
Some entries share one result that the patent states for a list of compounds.

Experiments:
Assay type in all cases: in vivo
Aphis gossypii [1] = experiment: Cotton aphid (Aphis gossypii, mixed life stages), foliar spray on infested cotton plants; conditions: after 5 days
Myzus persicae [2] = experiment: Green peach aphid (Myzus persicae) through systemic means, artificial diet under membrane in 96-well plates; conditions: 2500 ppm, 3 days
Bemisia argentifolii = experiment: Silverleaf whitefly (Bemisia argentifolii, adult), sprayed cotton plants; conditions: adults, 3 days after treatment
Aphis craccivora = experiment: Cowpea aphid (Aphis craccivora), spray on colonized potted cowpea plants; conditions: 300 ppm; sprayed potted cowpea plants; population reduction assessed after 24, 72 and 120 hours
Myzus persicae [3] = experiment: Green peach aphid (Myzus persicae, mixed life stages), foliar spray on infested bell pepper plants; conditions: after 5 days
Megoura viciae = experiment: Vetch aphid (Megoura viciae), bean leaf disks in microtiterplates; conditions: test solution 2500 mg/l; 2.5 μl sprayed on bean leaf disks; 6 days
Myzus persicae [4] = experiment: Hydroponic test against green peach aphids (Myzus persicae), bare-root green pepper plants; conditions: 100 ppm; root uptake (hydroponic); 3 days
Aphis gossypii [5] = experiment: Hydroponic test against cotton aphids (Aphis gossypii), bare-root cotton plants; conditions: 100 ppm; root uptake (hydroponic); 3 days

Row | SMILES | mortality in comparison with untreated controls (Aphis gossypii [1]; 300 ppm) | mortality in comparison with untreated controls (Myzus persicae [2]) | mortality in comparison with untreated controls (Bemisia argentifolii; 300 ppm) | mortality in comparison with untreated controls (Aphis craccivora) | mortality in comparison with untreated controls (Myzus persicae [3]; 300 ppm) | mortality (Megoura viciae) | mortality in comparison with untreated controls (Aphis gossypii [1]; 100 ppm) | mortality in comparison with untreated controls (Bemisia argentifolii; 100 ppm) | mortality in comparison with untreated controls (Myzus persicae [4]) | mortality in comparison with untreated controls (Myzus persicae [3]; 100 ppm) | mortality in comparison with untreated controls (Aphis gossypii [5])
1 | Cc1ncc(C(=O)Nc2ccnnc2)c(C(C)F)n1 (centres unmarked) [Compound 64] | at least 75% | 100% | at least 75% | at least 90% | at least 75% | at least 90% | – | – | – | – | –
2 | Cc1nc(C2CC2)ncc1C(=O)Nc1ccnnc1 [Compound 11] | – | 100% | – | at least 90% | – | at least 90% | at least 75% | at least 75% | at least 75% | at least 75% | –
3 | Cc1nc(CC2CC2)ncc1C(=O)Nc1ccnnc1 [Compound 22] | at least 75% | 100% | at least 75% | – | at least 75% | at least 90% | – | – | – | – | –
4 | O=C(Nc1ccnnc1)c1cnccc1C(F)(F)F [Compound 50] | at least 75% | 100% | at least 75% | – | – | at least 90% | – | – | – | – | –
5 | Cc1nc(CC2CC2)ncc1C(=O)N(C)c1ccnnc1 [Compound 23] | at least 75% | 100% | at least 75% | at least 90% | at least 75% | at least 90% | – | – | – | – | –
6 | Cc1nc(C(F)(F)F)ncc1C(=O)N(C)c1ccnnc1 [Compound 3] | at least 75% | 100% | at least 75% | at least 90% | at least 75% | at least 90% | – | – | at least 75% | – | at least 75%
7 | Cc1nc(CC(C)C)ncc1C(=O)Nc1ccnnc1 [Compound 26] | – | – | – | at least 90% | – | at least 90% | – | at least 75% | – | at least 75% | –
8 | Cc1ncc(C(=O)Nc2ccnnc2)c(C)n1 [Compound 9] | at least 75% | 100% | at least 75% | at least 90% | at least 75% | at least 90% | – | – | at least 75% | – | at least 75%
9 | Cc1ncc(C(=O)N(C)c2ccnnc2)c(C)n1 [Compound 10] | at least 75% | 100% | at least 75% | at least 90% | at least 75% | at least 90% | – | – | at least 75% | – | at least 75%
10 | O=C(Nc1ccnnc1)c1cccnc1Cl [Compound 48] | – | 100% | at least 75% | at least 90% | – | at least 90% | – | – | – | – | –
11 | Cc1nc(CC(C)C)ncc1C(=O)N(C)c1ccnnc1 [Compound 27] | – | – | – | at least 90% | – | at least 90% | – | at least 75% | – | at least 75% | –
12 | Cc1ncc(C(=O)Nc2ccnnc2)c(C(F)(F)F)n1 [Compound 8] | – | 100% | – | at least 90% | – | at least 90% | – | at least 75% | – | at least 75% | –
13 | CCc1ncc(C(=O)Nc2ccnnc2)c(C)n1 [Compound 66] | – | 100% | – | at least 90% | – | at least 90% | at least 75% | at least 75% | – | at least 75% | –
14 | Cc1nc(C(F)(F)F)ncc1C(=O)Nc1ccnnc1 [Compound 2] | at least 75% | 100% | at least 75% | at least 90% | at least 75% | at least 90% | – | – | at least 75% | – | at least 75%
